From PMC11139983
Results are given in words; binding and its absence hold for the method and conditions named. In cells and extracts the contact can be indirect. Some results given as binding are weak or reduced against the parent protein; the word gives no strength.

Key:
Test in all cases: FRET or BRET; receptor-Rluc8 and Venus-β-arrestin2 co-transfected in HEK293T cells; PBS with 0.1% glucose, 5 µM Coelenterazine-H; BRET (540/480 nm) read 10 min after adding chemokine (CXCL12 or CXCL11) and/or VUN701
[1] = biological target: ACKR3 A271C L293C (human)
ACKR3 A271C (human) = biological target: ACKR3 A271C (human)
ACKR3 L293C (human) = biological target: ACKR3 L293C (human)

Measured: binding

β-arrestin2 (from UniProt P32121 1-409)
binds: all assays above
